Test results from patent publication US20050064411A1.
No constants are given. Whether binding was seen depends on the method and setting. For some of these results: Binding seen in cells or lysates may run through a third protein. Some results given as binding are weak or reduced against the parent protein; the word gives no strength.

Chains of the proteins cited; added tags and fusions are not shown. Lines headed by an entry give the natural chain unless they say otherwise; changes in a name come on top.
UniProt Q76N89: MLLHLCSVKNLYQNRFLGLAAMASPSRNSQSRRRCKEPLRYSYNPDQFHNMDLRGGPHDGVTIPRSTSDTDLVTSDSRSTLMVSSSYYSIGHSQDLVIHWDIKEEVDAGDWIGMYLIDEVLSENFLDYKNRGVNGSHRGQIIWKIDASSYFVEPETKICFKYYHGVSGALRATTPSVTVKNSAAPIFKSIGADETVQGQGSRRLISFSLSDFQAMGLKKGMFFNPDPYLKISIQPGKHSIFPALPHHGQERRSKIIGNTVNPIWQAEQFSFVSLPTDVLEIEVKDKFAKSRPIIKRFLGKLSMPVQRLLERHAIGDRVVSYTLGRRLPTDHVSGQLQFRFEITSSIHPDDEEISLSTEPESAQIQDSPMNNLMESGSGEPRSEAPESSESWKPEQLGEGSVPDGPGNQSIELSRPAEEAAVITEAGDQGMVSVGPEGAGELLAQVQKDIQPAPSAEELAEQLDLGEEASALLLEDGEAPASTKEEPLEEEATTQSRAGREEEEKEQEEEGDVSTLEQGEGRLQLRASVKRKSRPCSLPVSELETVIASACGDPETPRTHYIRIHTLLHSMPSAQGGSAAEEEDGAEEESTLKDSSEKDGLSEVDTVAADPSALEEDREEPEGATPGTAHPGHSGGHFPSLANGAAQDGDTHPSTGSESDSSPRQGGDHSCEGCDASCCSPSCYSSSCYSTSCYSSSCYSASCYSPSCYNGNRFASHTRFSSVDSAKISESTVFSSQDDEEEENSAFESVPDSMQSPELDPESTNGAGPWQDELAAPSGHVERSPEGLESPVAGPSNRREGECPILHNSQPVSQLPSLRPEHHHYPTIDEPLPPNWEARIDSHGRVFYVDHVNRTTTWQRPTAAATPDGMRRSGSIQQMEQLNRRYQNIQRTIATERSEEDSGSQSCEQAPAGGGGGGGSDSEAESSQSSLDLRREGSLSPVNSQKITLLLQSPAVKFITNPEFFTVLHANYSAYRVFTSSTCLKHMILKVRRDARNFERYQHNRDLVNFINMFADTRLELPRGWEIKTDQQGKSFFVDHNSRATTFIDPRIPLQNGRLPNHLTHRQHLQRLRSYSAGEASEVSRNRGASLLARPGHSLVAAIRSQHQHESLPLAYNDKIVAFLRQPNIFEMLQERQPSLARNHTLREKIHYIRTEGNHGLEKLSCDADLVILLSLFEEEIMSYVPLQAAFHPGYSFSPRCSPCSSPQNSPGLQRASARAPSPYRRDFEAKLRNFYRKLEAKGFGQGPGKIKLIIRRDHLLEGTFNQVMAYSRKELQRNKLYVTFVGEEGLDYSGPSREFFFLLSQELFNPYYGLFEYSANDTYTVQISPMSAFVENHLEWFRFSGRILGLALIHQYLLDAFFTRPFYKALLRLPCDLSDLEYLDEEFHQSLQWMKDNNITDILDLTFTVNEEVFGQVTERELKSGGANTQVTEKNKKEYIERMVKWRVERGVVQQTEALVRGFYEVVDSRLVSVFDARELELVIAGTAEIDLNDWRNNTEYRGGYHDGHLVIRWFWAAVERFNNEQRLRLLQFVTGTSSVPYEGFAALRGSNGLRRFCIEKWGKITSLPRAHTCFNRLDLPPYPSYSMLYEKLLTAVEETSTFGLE

How the values were obtained:
FLAG-AICD (human) [1] = biological target: FLAG-AICD (human) (UniProt P05067); assay: co-immunoprecipitation from Cos7 cells: IP with anti-FLAG antibody, detection with anti-NEDL-1 antibody (FIG. 8)
FLAG-AICD (human) [2] = biological target: FLAG-AICD (human) (UniProt P05067); assay: immunoprecipitation with anti-NEDL-1 antibody, detection with anti-FLAG antibody (FIG. 7 legend)
FLAG-AICD (human) [3] = biological target: FLAG-AICD (human) (UniProt P05067); assay: co-immunoprecipitation from Cos7 cells: IP with anti-NEDL-1 antibody, detection with anti-FLAG antibody (FIG. 7)
FLAG-AICD (human) [4] = biological target: FLAG-AICD (human) (UniProt P05067); assay: immunoprecipitation with anti-FLAG antibody, detection with anti-NEDL-1 antibody (FIG. 8 legend)

binding (FLAG-AICD (human) [1]): binds
binding (FLAG-AICD (human) [2]): binds
binding (FLAG-AICD (human) [3]): binds
binding (FLAG-AICD (human) [4]): binds
Substance: NEDL-1 protein (from UniProt Q76N89 22-1606) (enzyme)
